No constants are given. Whether binding was seen depends on the method and setting. Some binding calls cover weakened binding; strength is not graded here.
Target: M. tuberculosis GatB with C-terminal 6xHis tag (M. tuberculosis) (UniProt P9WN61)
Assay: tandem affinity co-purification (Ni-NTA, then Strep-Tactin)

The chains behind the UniProt entries cited, without tags or fusion partners.
UniProt P9WN61: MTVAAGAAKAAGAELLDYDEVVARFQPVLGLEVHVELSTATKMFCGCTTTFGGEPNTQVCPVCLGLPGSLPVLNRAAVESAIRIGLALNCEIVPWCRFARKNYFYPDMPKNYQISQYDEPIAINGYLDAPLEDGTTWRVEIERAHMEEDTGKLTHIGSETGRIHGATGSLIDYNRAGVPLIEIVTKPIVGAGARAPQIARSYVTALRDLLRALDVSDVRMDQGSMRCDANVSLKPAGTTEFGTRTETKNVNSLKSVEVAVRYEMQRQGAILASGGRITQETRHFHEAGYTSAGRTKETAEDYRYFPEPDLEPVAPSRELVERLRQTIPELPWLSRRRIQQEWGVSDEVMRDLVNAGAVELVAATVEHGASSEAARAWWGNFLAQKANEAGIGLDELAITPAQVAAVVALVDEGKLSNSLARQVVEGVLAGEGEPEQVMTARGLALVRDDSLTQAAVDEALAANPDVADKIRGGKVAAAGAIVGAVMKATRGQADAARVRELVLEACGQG
UniProt P9WQA1: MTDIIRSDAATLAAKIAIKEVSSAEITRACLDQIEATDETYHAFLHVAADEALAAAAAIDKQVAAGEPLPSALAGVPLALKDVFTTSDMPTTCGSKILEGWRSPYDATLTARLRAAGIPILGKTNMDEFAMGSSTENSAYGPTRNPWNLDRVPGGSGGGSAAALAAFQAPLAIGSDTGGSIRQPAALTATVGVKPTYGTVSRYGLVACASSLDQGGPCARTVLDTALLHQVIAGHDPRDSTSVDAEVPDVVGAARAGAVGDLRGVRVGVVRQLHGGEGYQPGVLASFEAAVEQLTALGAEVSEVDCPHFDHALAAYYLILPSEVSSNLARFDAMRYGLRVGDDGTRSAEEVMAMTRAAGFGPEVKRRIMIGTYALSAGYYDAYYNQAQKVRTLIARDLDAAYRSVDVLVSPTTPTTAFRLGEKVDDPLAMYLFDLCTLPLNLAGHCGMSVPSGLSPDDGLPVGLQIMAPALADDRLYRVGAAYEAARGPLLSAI

M. tuberculosis GatA, wild type (from UniProt P9WQA1 1-494)
binding: binds

Reference: publication PMC8406222
